At least one peptide structure holds a part that was inferred or is arguable (an end, a ring closure or a residue). No end group written: not given here.
Tests used:
[1] = tested on: human-derived tracheal/bronchial epithelial cells (EpiAirway™ Tissue model system); test: Transepithelial electrical resistance (TER), EpiAirway tissue model; type: cell-based; details: pH 7, 20 μl applied
Description: EpiAirway™ culture membranes were received the day before the experiments started. They are shipped in phenol red-free and hydrocortisone-free Dulbecco's Modified Eagle's Medium (DMEM). The cells are ciliated and psudostratefied, grown to confluency on Millipore Multiscreen Caco-2 96-well assay system comprised of a polycarbonate filter system. Upon receipt, the insert system will be stored unopened at 4° C. and/or cultured in 250 μl basal media per well (phenol red-free and hydrocortisone-free Dulbecco's Modified Eagle's Medium (DMEM)) at 37° C./5% CO2 for 24 hours before use.
TER measurements were taken using the REMS Autosampler (World Precision Instruments, Sarasota, Fla.) with the electrode leads. The electrodes and a tissue culture blank insert will be equilibrated for at least 20 minutes in MatTek Air-100™ medium with the power off prior to checking calibration. The background resistance of the insert system has been established by multiple measurements of a blank insert plate and the same value was used for each test on the platform. Time zero TER (TER0) was measured before incubation of the inserts with the test formulation. The top electrode will be as adjusted so that it is close to, but not making contact with, the top surface of the insert membrane. Background resistance of the blank insert should be about 5-20 ohms. For each TER determination, 100 μl of MatTek Air-100™ medium was added to the insert and 250 μl in the basal well followed by placement in the Endohm chamber. All TER values are reported as a function of the surface area of the tissue. Resistance was expressed as both Ohms*cm^2 and percent original TER value.
TER values were calculated as: [formula] [formula] Formula terms for TER calculation defined: […]
A decrease in TER value relative to the control value indicates a decrease in cell membrane resistance and an increase in mucosal epithelial cell permeability.
(§1) Of the total 300 μl volume for each test formulation, only a 20 μl sample was applied to the human-derived tracheal/bronchial epithelial cells (EpiAirway™ Tissue model system) in order to assess the effect each test formulation had on TER, LDH and sample permeation.

[2] = tested on: human-derived tracheal/bronchial epithelial cells (EpiAirway™ Tissue model system); test: FITC-Dextran (FD3) permeation assay, EpiAirway tissue model; type: cell-based; details: for % FD3 Permeation: 1 h at 37° C.
Description: A FITC labeled dextran with a molecular weight 3000 (FD3) was used to assess the efficacy of individual TJMP on epithelial cell monolayer permeation. The tissue insert plates were transferred to a 96-well receiver plate containing 200 μl of DPBS++ as basal media. The apical surface of each tissue culture insert was incubated with a 20 μl sample of a single test formulation (refer to Table 4 in Example 2 for details of test formulations) for one hour at 37° C. in the dark on a shaker (˜100 rpm). Following the 1 hour incubation period, underlying basal media samples were taken from each tissue culture insert and temporarily stored in the dark at room temperature until FD3 levels were quantified by fluorescence spectroscopy. For FD3 measurements, a 150 μl of basal media sample was transferred to a black, clear bottom 96-well plate. Fluorescence emission at 528/20 following excitation at 485/20 were measured using a FLx800 fluorescence plate reader from Biotek Instruments.
Permeation was calculated as: [formula] [formula] Formula terms for permeation defined: […]
as §1

For LRKLRKRLLRLRKLRKRLLR-NH2 [PN745], the “% T0 TER” value ([1]; 25 μM peptide) was 24%, the “% T0 TER” value ([1]; 100 μM peptide) was 7% and the “% T0 TER” value ([1]; 250 μM peptide) was 1%. For the same substance, the “% T0 TER” value ([1]; 500 μM peptide) was 1%, the “% T0 TER” value ([1]; 1000 μM peptide) was −3% and the “% FD3 Permeation” value ([2]; 25 μM peptide) was 2%. The “% FD3 Permeation” value ([2]; 100 μM peptide) was 6%, the “% FD3 Permeation” value ([2]; 250 μM peptide) was 8% and the “% FD3 Permeation” value ([2]; 500 μM peptide) was 7%. For the same substance, the “% FD3 Permeation” value ([2]; 1000 μM peptide) was 7% and the optimal concentration ([2]; based on observed TER reduction, sample permeation and cytotoxicity (LDH release)) was 100 µM.
